Measured values: PMC5131891, “Structural Insights into Streptococcal Competence Regulation by the Cell-to-Cell Communication System ComRS” (PLoS Pathogens, 2016)
Changes are numbered by the printed parent chain. For at least one entry, the source does not settle the construct or the ends of the probe. The comparison behind a weaker result is the experiment's own reference, which may not be listed here. For some assays here: At least one verdict was read from the data and is not stated in words by the source. Where a protein sequence is shown, tags need not be part of it.

Key:
Test in all cases: EMSA
[1] = test system: T1, ComR Y91A (Streptococcus thermophilus LMD-9); conditions: XIP 0.2-1.2 uM, ComR 4 uM; EMSA: 20 mM Tris-HCl pH 8.0, 150 mM NaCl, 1 mM EDTA, 10% glycerol, 1 mg/ml BSA, 37 C 10 min, 40 ng DNA in 20 ul; recombinant protein; protein details: C-terminal StreptagII
T1 sequence (looked up, limits assumed): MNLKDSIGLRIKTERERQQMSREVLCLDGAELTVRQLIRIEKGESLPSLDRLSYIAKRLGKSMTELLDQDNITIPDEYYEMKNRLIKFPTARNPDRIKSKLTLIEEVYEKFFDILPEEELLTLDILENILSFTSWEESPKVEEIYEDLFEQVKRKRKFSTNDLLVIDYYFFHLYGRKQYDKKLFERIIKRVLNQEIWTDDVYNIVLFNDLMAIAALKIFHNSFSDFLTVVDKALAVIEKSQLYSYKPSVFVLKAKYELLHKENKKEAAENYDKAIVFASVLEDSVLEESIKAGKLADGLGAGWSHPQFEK

[2] = test system: T2, ComR K87A (Streptococcus thermophilus LMD-9); conditions: XIP 0.2-1.2 uM, ComR 4 uM; EMSA: 20 mM Tris-HCl pH 8.0, 150 mM NaCl, 1 mM EDTA, 10% glycerol, 1 mg/ml BSA, 37 C 10 min, 40 ng DNA in 20 ul; recombinant protein; protein details: C-terminal StreptagII
T2 sequence (looked up, limits assumed): T1 sequence (looked up, limits assumed) with K87A, A91Y

[3] = test system: T3, ComR E117A/E118A (Streptococcus thermophilus LMD-9); conditions: no XIP, ComR up to 3.5 uM, binds, but less than E146A/D147A; EMSA: 20 mM Tris-HCl pH 8.0, 150 mM NaCl, 1 mM EDTA, 10% glycerol, 1 mg/ml BSA, 37 C 10 min, 40 ng DNA in 20 ul; recombinant protein; protein details: C-terminal StreptagII
T3 sequence (looked up, limits assumed): T1 sequence (looked up, limits assumed) with A91Y, E117A, E118A

[4] = test system: T4, ComR F171A/Y174A (Streptococcus thermophilus LMD-9); conditions: XIP 0.2-1.2 uM, ComR 4 uM; EMSA: 20 mM Tris-HCl pH 8.0, 150 mM NaCl, 1 mM EDTA, 10% glycerol, 1 mg/ml BSA, 37 C 10 min, 40 ng DNA in 20 ul; recombinant protein; protein details: C-terminal StreptagII
T4 sequence (looked up, limits assumed): T1 sequence (looked up, limits assumed) with A91Y, F171A, Y174A

[5] = test system: T5, ComR R92A (Streptococcus thermophilus LMD-9); conditions: XIP 0.2-1.2 uM, ComR 4 uM; EMSA: 20 mM Tris-HCl pH 8.0, 150 mM NaCl, 1 mM EDTA, 10% glycerol, 1 mg/ml BSA, 37 C 10 min, 40 ng DNA in 20 ul; recombinant protein; protein details: C-terminal StreptagII
T5 sequence (looked up, limits assumed): T1 sequence (looked up, limits assumed) with A91Y, R92A

[6] = test system: T6, ComR T90A (Streptococcus thermophilus LMD-9); conditions: XIP 0.2-1.2 uM, ComR 4 uM; EMSA: 20 mM Tris-HCl pH 8.0, 150 mM NaCl, 1 mM EDTA, 10% glycerol, 1 mg/ml BSA, 37 C 10 min, 40 ng DNA in 20 ul; recombinant protein; protein details: C-terminal StreptagII
T6 sequence (looked up, limits assumed): T1 sequence (looked up, limits assumed) with T90A, A91Y

[7] = test system: T7, ComR K100A (Streptococcus thermophilus LMD-9); conditions: XIP 0.2-1.2 uM, ComR 4 uM; EMSA: 20 mM Tris-HCl pH 8.0, 150 mM NaCl, 1 mM EDTA, 10% glycerol, 1 mg/ml BSA, 37 C 10 min, 40 ng DNA in 20 ul; recombinant protein; protein details: C-terminal StreptagII
T7 sequence (looked up, limits assumed): T1 sequence (looked up, limits assumed) with A91Y, K100A

[8] = test system: T8, ComR K246A (Streptococcus thermophilus LMD-9); conditions: XIP 0.2-1.2 uM, ComR 4 uM; EMSA: 20 mM Tris-HCl pH 8.0, 150 mM NaCl, 1 mM EDTA, 10% glycerol, 1 mg/ml BSA, 37 C 10 min, 40 ng DNA in 20 ul; recombinant protein; protein details: C-terminal StreptagII
T8 sequence (looked up, limits assumed): T1 sequence (looked up, limits assumed) with A91Y, K246A

Measured: binding result

CAAAATCGAGTAGTGACATTTATGTCACTACTTTTTTGTT (double strand) [Cy3-boxPster_1655 wt (40 bp)]
binds more weakly: [1] | [2] | [3] | [4] | [5] | [6] | [7] | [8]
